From PMC7819943, “Rice protein-binding microarrays: a tool to detect cis-acting elements near promoter regions in rice” come the findings set out here.

The other results are listed elsewhere or left out.

This test concerns the target T1, OsSMF1 (Oryza sativa, UniProt Q6ZLB0 1-436).
T1 sequence: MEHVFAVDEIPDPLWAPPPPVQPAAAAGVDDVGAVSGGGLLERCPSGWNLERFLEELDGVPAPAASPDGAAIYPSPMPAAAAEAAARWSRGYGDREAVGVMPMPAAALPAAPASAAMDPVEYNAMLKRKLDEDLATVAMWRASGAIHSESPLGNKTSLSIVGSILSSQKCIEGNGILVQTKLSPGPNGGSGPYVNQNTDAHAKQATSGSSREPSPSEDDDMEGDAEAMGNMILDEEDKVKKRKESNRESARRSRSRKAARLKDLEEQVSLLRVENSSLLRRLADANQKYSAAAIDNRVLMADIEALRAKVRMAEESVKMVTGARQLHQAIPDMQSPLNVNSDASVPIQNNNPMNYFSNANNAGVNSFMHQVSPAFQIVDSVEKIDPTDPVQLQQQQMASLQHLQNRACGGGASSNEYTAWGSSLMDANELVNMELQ
As to the kind of experiment: protein-binding microarray (RPBM); PBS, 2% BSA, 51.3 ng/ul salmon testes DNA, 50 uM zinc acetate, 200 nM TF, 25 C, 1 h; high values mean tight binding. Conditions: protein: recombinant; tags: N-terminal polyhistidine and DsRed monomer fusion (pET32a); chain copies: 2; label: CyDye5-dUTP incorporated in the synthesized complementary strand; 3' TTTTT single-stranded linker to array surface; dsDNA, one strand shown. The method, boiled down: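 Transcription factors were each fused at the N-terminus to a polyhistidine tag plus DsRed and expressed in E. coli BL21-CodonPlus before Ni–NTA purification. Binding to a double-stranded custom Agilent array was carried out with 200 nM protein at 25 °C for 1 h in PBS, 2% BSA, salmon testes DNA and 50 µM zinc acetate. The binding signal is per-feature fluorescence intensity, in arbitrary units, on an Axon 4000B scanner.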
For the sequence “GTCTGGCTGCTGATGGTGATGATGCTGACTTGTGACGAGTCGGAGTCACCTAGTGCAG”, the binding signal was 3620 fluorescence intensity (a.u.).

Take “GTTCAGTTCACGCGCGACACCAGCAGCCTGCCTCATCACCCGGAGTCACCTAGTGCAG”: the binding signal is 4040 fluorescence intensity (a.u.).

As to “GGAGGCCCATTGATTCCTACGTGGGCTGGGCCGAACACGGCGGAGTCACCTAGTGCAG”, the binding signal is 3280 fluorescence intensity (a.u.).

As to “AAGATAGTGACGTACGTGCGGCCCATACCCCAATTCTCCCCGGAGTCACCTAGTGCAG”, the binding signal is 5840 fluorescence intensity (a.u.).

For “GAAAATTGTGCTTCTATTGTGTCACTACACGTTAAGTGTCCGGAGTCACCTAGTGCAG”, the binding signal is 4140 fluorescence intensity (a.u.).

On to “GGTGGGGTTTATAACCGACGTGGCTTGTACGGATGGACGGCGGAGTCACCTAGTGCAG”, for which the binding signal was 5030 fluorescence intensity (a.u.).

As to “AGCTTTATGACGATAAAGAATCACGCTTACGTGAGTGTGCCGGAGTCACCTAGTGCAG”, the binding signal is 3950 fluorescence intensity (a.u.).

As for “AGAATGAGAGATCTAGTCATGTCGTCCTATACTCCGGCTACGGAGTCACCTAGTGCAG”, the binding signal was 4470 fluorescence intensity (a.u.).

Regarding “TCTCCCCTCTCCTTCCTCCTCTCCTTTCCCCTCCTCTCTTCGGAGTCACCTAGTGCAG”, the binding signal was 17100 fluorescence intensity (a.u.).

In the case of “GGGATGCTTTGTATTCGGTTTTGCGGTTGAATGACGCAACCGGAGTCACCTAGTGCAG”, the binding signal was 4050 fluorescence intensity (a.u.).

For the sequence “TAAACATGCCATGTGTACATGCCACATCATCTATGCATGCCGGAGTCACCTAGTGCAG”, the binding signal is 15900 fluorescence intensity (a.u.).

“AACTCAGGGGCGACGGCGACAATGATCGGATGAGAGCTTGCGGAGTCACCTAGTGCAG”: the binding signal was 3500 fluorescence intensity (a.u.).

As to “GGTTTGGTGTTTGACATGTCACAGGGCGTTGCCGCCATTACGGAGTCACCTAGTGCAG”, the binding signal was 3690 fluorescence intensity (a.u.).

As for “TTCTTGAAACTCCTCAAACATTGCACGTGTATAGAACTTTCGGAGTCACCTAGTGCAG”, the binding signal is 4330 fluorescence intensity (a.u.).

For the sequence “CCCACGGGATTGTCGGTCCCTCGTTTTGGTGATGCAGGACCGGAGTCACCTAGTGCAG”, the binding signal is 3570 fluorescence intensity (a.u.).

On to “CAACATAAACTAGTGCTAACTAGCTATGATGTGTTGATGTCGGAGTCACCTAGTGCAG”, for which the binding signal is 3500 fluorescence intensity (a.u.).

Regarding “GGAGGAGAGGGTACAGCCACCGCTGACACCTCTGCCAGGCCGGAGTCACCTAGTGCAG”, the binding signal was 5200 fluorescence intensity (a.u.).

In the case of “ACCACCTAAGACACTTTTGTAGTAAACCTCACGTCAGTTTCGGAGTCACCTAGTGCAG”, the binding signal is 3230 fluorescence intensity (a.u.).

On to “TCCGGGCCCACCACGTCCCGTATGACTGTATGAGTTGTGACGGAGTCACCTAGTGCAG”, for which the binding signal was 3610 fluorescence intensity (a.u.).

“CCGCAACCCCACGAGGCCGCGACCGACCGACCTGTCACGACGGAGTCACCTAGTGCAG”: the binding signal is 4730 fluorescence intensity (a.u.).

“AGAAAGCAACATGCTGTCCCGGTGGCACATCCGATTAGTACGGAGTCACCTAGTGCAG”: the binding signal is 3680 fluorescence intensity (a.u.).

In the case of “AGCAAGTGACAGTCAGAACCCTCGAGCGTCATCAATTTCTCGGAGTCACCTAGTGCAG”, the binding signal was 4460 fluorescence intensity (a.u.).

With “CTCTTCGTTGCATTGCACTCCAGCTCACACGTCTCACCCCCGGAGTCACCTAGTGCAG”, the binding signal is 7320 fluorescence intensity (a.u.).

Turning to “CATACATGTGTCCAAACATTCGATGTGACAGAGTAAAAGTCGGAGTCACCTAGTGCAG”, the binding signal is 3180 fluorescence intensity (a.u.).

As to “GATTGCCCAGGTTTCACCGATGCCAGCTTGGCCGTGGTCGCGGAGTCACCTAGTGCAG”, the binding signal was 3900 fluorescence intensity (a.u.).

“TCCAGGCTGCCATGCGTACGTGCGCGTGAAGCTCGCTAAGCGGAGTCACCTAGTGCAG”: the binding signal is 4430 fluorescence intensity (a.u.).

Regarding “GGCGTGGCTCATCGTGGCCGGACACGTGCTGGCACGGCGCCGGAGTCACCTAGTGCAG”, the binding signal was 4880 fluorescence intensity (a.u.).

For “GTCATGACCAGACAGCAAAAGACGCAGTTTTGAGTCATTGCGGAGTCACCTAGTGCAG”, the binding signal is 5300 fluorescence intensity (a.u.).

On to “GGAGAAAATATCAAATTTGTTCAACCATACACCCTTGTCTCGGAGTCACCTAGTGCAG”, for which the binding signal was 23100 fluorescence intensity (a.u.).

As to “ATCAACACTTTGACTGTCAGCAAAATCATAAAGATTGATGCGGAGTCACCTAGTGCAG”, the binding signal is 3350 fluorescence intensity (a.u.).

For the sequence “AATGTAGGTACTAGGCCTTTGAGTTGTTATACAACAACTTCGGAGTCACCTAGTGCAG”, the binding signal was 26200 fluorescence intensity (a.u.).

For the sequence “GTGTGCCATGGCCTATCGTTTCCAGATGTTCACGGCAAAGCGGAGTCACCTAGTGCAG”, the binding signal was 3270 fluorescence intensity (a.u.).

Regarding “GGTACAGTATACGTGCACAGTAGCGCACGTGCTTCACACCCGGAGTCACCTAGTGCAG”, the binding signal was 4750 fluorescence intensity (a.u.).

For the sequence “GATAGCCAACTCACCACAAACACCACCCACTTGTCCCATCCGGAGTCACCTAGTGCAG”, the binding signal is 4180 fluorescence intensity (a.u.).

Turning to “ACCGTCGACGCGTTTGAGCGCGGCCTACTCGACGAGCCTTCGGAGTCACCTAGTGCAG”, the binding signal was 3170 fluorescence intensity (a.u.).

For the sequence “TCTGCGCCATCCACGCCAAGCGCGTCACCATCATGCCCAACGGAGTCACCTAGTGCAG”, the binding signal was 3300 fluorescence intensity (a.u.).

For “CGTGGATGAGAATCGCCACGGAGGAGCGGATCCTACGTGGCGGAGTCACCTAGTGCAG”, the binding signal was 18600 fluorescence intensity (a.u.).

Regarding “TCTACTGTCTGACAAAGTGGGCAGAAGGTCTGACTTGGCCCGGAGTCACCTAGTGCAG”, the binding signal was 3800 fluorescence intensity (a.u.).

For “GCGCGGGCGAGGGGCAGCGGCGACGCCCGAAGTGCGCGTGCGGAGTCACCTAGTGCAG”, the binding signal was 15400 fluorescence intensity (a.u.).

As for “GCGCCGCTCCGTGTCCCTCCCAATCCGAACCGTTTCGCGCCGGAGTCACCTAGTGCAG”, the binding signal was 3500 fluorescence intensity (a.u.).

“CTACAGCAGCAGCCAAAACCAAAGGGAATAGACTAGACCCCGGAGTCACCTAGTGCAG”: the binding signal was 37900 fluorescence intensity (a.u.).

For “GCTTCCCGCACGACACCTGTCCACACAAATCTTAGAGCAACGGAGTCACCTAGTGCAG”, the binding signal was 41400 fluorescence intensity (a.u.).
